Measurements: patent US11324729B2, “NSD family inhibitors and methods of treatment therewith” (The Regents of the University of Michigan, priority 2017, dated 2022)
pIC50: −log10 of the molar value. Some entries share one result that the patent states for a list of compounds.

Biological target: NSD family protein
Assay: IC50 for an NSD family protein (compounds tested for binding)

Row | Structure (SMILES) | pIC50
1 | C=CC(=O)NCc1cccc(NCC#Cc2cc(O)c3nc(N)sc3c2)c1 [Compound 237, N-(3-((3-(2-amino-4-hydroxybenzo[d]thiazol-6-yl)prop-2-yn-1-yl)amino)benzyl)acrylamide] | > 4.70
2 | C#CC(=O)NCc1cccc(NCC#Cc2cc(O)c3nc(N)sc3c2)c1 [Compound 221] | > 4.70
3 | C=CS(=O)(=O)NC(C)(C)c1cccc(NCC#Cc2cc(O)c3nc(N)sc3c2)c1 [Compound 249] | > 4.70
4 | Nc1nc2c(O)cc(C#CCNc3cccc(CNC(=O)CCCCNC(=O)c4ccc5c(c4)C(=O)OC54c5ccc(O)cc5Oc5cc(O)ccc54)c3)cc2s1 [Compound 244] | > 4.70
5 | COc1cc(N)ccc1NCC#Cc1cc(O)c2nc(N)sc2c1 [Compound 111] | > 4.70
6 | Nc1nc2c(O)cc(C#CCNc3cccc(NC(=O)Cc4nccs4)c3)cc2s1 [Compound 193] | > 4.70
7 | C=CS(=O)(=O)NCc1ccc(F)c(NCC#Cc2cc(O)c3nc(N)sc3c2)c1 [Compound 226] | > 4.70
8 | Nc1nc2c(O)cc(C#CCNc3cccc(CNC(=O)/C=C/C(F)(F)F)c3)cc2s1 [Compound 234] | > 4.70
9 | Nc1nc2c(O)cc(C#CCNc3ccccc3)cc2s1 [Compound 86] | > 4.70
10 | C=CS(=O)(=O)N1CCC(CCOc2cccc(NCC#Cc3cc(O)c4nc(N)sc4c3)c2)CC1 [Compound 180] | > 4.70
11 | C#CCCC(=O)Nc1cc(CNS(=O)(=O)C=C)cc(NCC#Cc2cc(O)c3nc(N)sc3c2)c1 [Compound 259] | > 4.70
12 | C=CC(=O)Nc1ccc(CCC(=O)Nc2cccc(NCC#Cc3cc(O)c4nc(N)sc4c3)c2)cc1 [Compound 197, N-(4-(3-((3-((3-(2-amino-4-hydroxybenzo[d]thiazol-6-yl)prop-2-yn-1-yl)amino)phenyl)amino)-3-oxopropyl)phenyl)acrylamide] | > 4.70
13 | C=CS(=O)(=O)NCCCCC(=O)Nc1cccc(NCC#Cc2cc(O)c3nc(N)sc3c2)c1 [Compound 192] | > 4.70
14 | Nc1cccc(NCC#Cc2cc(O)c3nc(N)sc3c2)c1 [Compound 94] | > 4.70
15 | CS(=O)(=O)NCCCCCC(=O)Nc1cccc(NCC#Cc2cc(O)c3nc(N)sc3c2)c1 [Compound 185] | > 4.70
16 | Nc1nc2c(O)cc(C#CCNc3cccc(CNC(=O)CC4CCCC4)c3)cc2s1 [Compound 253] | > 4.70
17 | Nc1nc2c(O)cc(C#CCNc3ccccc3Cl)cc2s1 [Compound 97] | > 4.70
18 | C=CS(=O)(=O)NCCCCCC(=O)Nc1cccc(NCC#Cc2cc(O)c3nc(N)sc3c2)c1 [Compound 186] | > 4.70
